A: 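Assay on Mycobacterium tuberculosis, filed only as a heat shock assay from Cornell; the read-out is not stated. The concentration is filed as 10 mM, unlikely as a test dose, so the dose is not known. Direction is inferred from retests: higher values go with stronger inhibition. Size under these conditions: about 69,000 compounds, about 930 of them at 50% or above in at least one test.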
B: 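Whole-cell assay for inhibitors of Mycobacterium tuberculosis growth, labelled Cornell in the record; the read-out is not stated. The concentration is filed as 10 mM, unlikely as a test dose, so the dose is not known. Higher means stronger inhibition (inferred from two other growth screens of the library). About 53,000 compounds were tested under these conditions; 1.7% (about 900) showed 50% or more at least once.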
C: 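Methionyl-tRNA synthetase (putative), Leishmania donovani (UniProt E9BF75). Primary screen of methionyl-tRNA synthetase; the read-out is not stated. The test concentration is not given. Values are per cent inhibition. Size under these conditions: about 68,000 compounds, about 24 of them at 50% or above in at least one test.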

Protein sequences, listed by entry. Tags and fused reporters are not part of them.
UniProt E9BF75, entry or part of it: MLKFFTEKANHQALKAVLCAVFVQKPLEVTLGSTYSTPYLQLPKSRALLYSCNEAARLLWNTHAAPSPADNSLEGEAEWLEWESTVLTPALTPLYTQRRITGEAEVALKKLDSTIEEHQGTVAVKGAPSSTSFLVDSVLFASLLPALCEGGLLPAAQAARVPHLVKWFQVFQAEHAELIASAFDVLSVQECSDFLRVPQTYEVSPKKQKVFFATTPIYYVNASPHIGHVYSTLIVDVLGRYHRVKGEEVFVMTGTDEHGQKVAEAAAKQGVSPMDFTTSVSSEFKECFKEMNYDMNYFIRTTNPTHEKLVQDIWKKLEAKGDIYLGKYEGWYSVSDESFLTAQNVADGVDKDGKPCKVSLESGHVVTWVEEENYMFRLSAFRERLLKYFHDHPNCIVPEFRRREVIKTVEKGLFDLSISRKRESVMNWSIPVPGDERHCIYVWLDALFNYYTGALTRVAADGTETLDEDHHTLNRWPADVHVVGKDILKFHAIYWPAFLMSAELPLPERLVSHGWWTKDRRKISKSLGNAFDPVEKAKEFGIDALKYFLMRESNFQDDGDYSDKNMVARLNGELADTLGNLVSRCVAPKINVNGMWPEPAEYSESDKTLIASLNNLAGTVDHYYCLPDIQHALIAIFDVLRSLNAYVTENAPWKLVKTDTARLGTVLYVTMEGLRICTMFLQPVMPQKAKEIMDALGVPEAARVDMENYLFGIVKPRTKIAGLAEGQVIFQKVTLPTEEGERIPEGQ

Results are percentages, as filed.
How 0% and 100% were set is not recorded. Most values in the screen are low, and negative values occur.
This is an unselected part of the compounds tested.

{"compound": "CNc1nc(CNC(=O)Nc2cccc(C(C)OC)c2)cs1", "stereo": "stereo not drawn", "A": 4.803, "C": 16.83}
{"compound": "[H][C@@]12CS(=O)(=O)C[C@]1([H])N(Cc1cc(F)cc(Cl)c1)CCN2CCO", "A": -20.69, "B": 17.57}
{"compound": "Cc1nnc(N2CCO[C@H]3[C@@H](OCc4ccccn4)CC[C@@H]32)s1", "C": 9.023}
{"compound": "O=C(c1cnc(COc2ccccc2)nc1O)N1CCOCC1", "A": 9.145, "B": -16.05, "C": 18.58}
{"compound": "O=C(Nc1ccccc1)N1C[C@H]2C[C@H](C(=O)N3CCCC3)[C@@H](C1)O2", "C": -3.297}
{"compound": "Cc1ccc(N2CCN(C(=O)COc3ncccn3)CC2)nn1", "A": -12.67, "C": 4.945}
{"compound": "CC(C)(C)OC(=O)NC(C)(C(N)=O)c1cccc(Cl)c1", "stereo": "stereo not drawn", "A": 1.867, "B": -19.06, "C": 11.11}
{"compound": "CCn1c(=O)nc(N)c2c(-c3ccc(OC)cc3)csc21", "A": 7.259, "B": 27.27, "C": 13.64}
{"compound": "CCCNC(=O)CN1CCC(NCc2csc(C(C)C)n2)CC1", "A": -5.544, "C": 12.69}
{"compound": "Cc1c(CN2CCc3nc4sccc4c(=O)n3CC2)cnn1C", "C": 18.55}
{"compound": "O=C(O)C(F)(F)F.[H][C@]12CCC(=O)N(c3cccnc3)[C@@]1([H])CCN2C(=O)c1cnc(C)cn1", "A": 4.971, "B": 18.49}
{"compound": "O=C(NCC1CC1)c1n[nH]c2c1CNCC2", "C": 8.333}
{"compound": "[H][C@@]12CN(Cc3c(C)noc3C)C[C@]1([H])OCCN2Cc1cnn(C)c1", "A": 5.462, "B": 7.755}
{"compound": "Cc1cnn(C2CN(c3ncnc4[nH]ccc34)C2)c1", "A": -26.06, "B": 15.74, "C": 13.18}
{"compound": "O=c1[nH]c(NCCCO)nc2c1C1(CCCC1)Cc1ccccc1-2", "A": -22.56, "B": 28.13, "C": 15.74}
{"compound": "N#CC(NC(=O)CCC(=O)NC1CCCC1)c1ccc(F)cc1F", "stereo": "stereo not drawn", "A": 11.71, "B": -5.317, "C": 15.72}
{"compound": "[H][C@]12CC[C@@]3(N=C(c4ccccc4)NC3=O)[C@@]1([H])CN(C(=O)NCC(C)C)C2", "A": 1.366, "B": 26.49}
{"compound": "CN1CCN(C2CCN(CCOc3ccccc3F)CC2)C1=O", "A": -5.353, "B": -26.33, "C": 18.52}
{"compound": "CC(CNC(=O)c1cn(-c2ccccc2)nn1)Cn1cccn1", "stereo": "stereo not drawn", "A": -20.08, "B": -13, "C": 6.97}
{"compound": "Cc1ccc(CNCc2cccc(NC(=O)CCN3CCOCC3)c2)s1", "A": -11.11, "B": 14.02, "C": 8.101}
{"compound": "O=C(Nc1cc(C2CCOCC2)[nH]n1)c1ccc(Cl)cn1", "A": -13.67, "C": 12.78}
{"compound": "O=S(=O)(Nc1cnc(N2CCCC2)nc1)c1ccc(F)cc1F", "A": -3.536, "B": -10.3, "C": 8.696}
{"compound": "CCCn1cc(C(=O)N2CCOC(c3nc(-c4cccs4)no3)C2)cn1", "stereo": "stereo not drawn", "A": -14.49, "C": 12.94}

The first 3 entries again:

Result for CNc1nc(CNC(=O)Nc2cccc(C(C)OC)c2)cs1 (stereo not drawn) was A: 4.803%; C: 16.83%.
Result for [H][C@@]12CS(=O)(=O)C[C@]1([H])N(Cc1cc(F)cc(Cl)c1)CCN2CCO was A: -20.69%; B: 17.57%.
Result for Cc1nnc(N2CCO[C@H]3[C@@H](OCc4ccccn4)CC[C@@H]32)s1 was C: 9.023%.

The values are deposited in ChEMBL (CHEMBL3988442, “University of Dundee, Small-Polar-MMV Screening Library” (2021)).